From PubChem BioAssay AID1487 (National Center for Advancing Translational Sciences (NCATS), 2009) come the findings set out here.

Some of the results follow. The main result of the screen is listed elsewhere. These columns were measured beside it and carry no call. Most of these compounds were active or inconclusive in the main read-out, so they are no random draw. Potencies come from curve fits of mixed quality, noted in brackets.

This assay can be described thus: qHTS Assay for Modulators of Lamin A Splicing. The settings on record: HeLa LMNA splicing GFP/RFP minigene ratio, 48 h. Put shortly:
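S3 HeLa stable clones carrying a lamin A-EGFP splicing minigene plus DsRed2 were seeded at 600 cells/well in Opti-MEM with 2% FBS, pin-dosed and incubated 48 h at 37°C. Acumen cytometry (488 nm) gave the GFP/RFP total-intensity ratio.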
A general note: In qHTS, concentration-response curves come from the screen itself.

[1] abbreviates: measured here: GFP splicing reporter channel.
Where [2] appears, read: measured here: RFP viability control channel.

The term AC50 denotes the concentration giving half of the maximal activity seen. In the case of `COCCn1c(CN2CCc3ccccc3C2)nc2c1c(=O)n(C)c(=O)n2C`, under setting [1], the half-maximal activity concentration (AC50) is 0.158 µM [rising, full curve, poor fit]. Turning to `CCOc1ccccc1NC(=O)Cn1nnc(C(=O)NCc2ccco2)c1N`, the half-maximal activity concentration (AC50) under setting [1] was 0.891 µM [falling, full curve, poor fit] and the AC50 under setting [2] is 1.41 µM [falling, partial curve].

With `O=c1c(-c2ccc(Cl)cc2)nc2cnc(N3CCNCC3)nc2n1CCc1ccccc1`, the concentration at half-maximal activity (AC50) reads like this: under setting [1], 20 µM [falling, partial curve]; under setting [2], 20 µM [falling, partial curve].

Consider `O=C(Oc1ccccc1N1C(=O)CCC1=O)c1ccco1`, for which the AC50 under setting [1] is 0.447 µM [rising, full curve, poor fit].

Turning to `COc1ccc([N+](=O)[O-])cc1NC(=O)Cc1noc2ccccc12`, under setting [2], the half-maximal activity concentration (AC50) was 22.4 µM [falling, single point]. As to `CCOC(=O)c1c(S(=O)(=O)NCC(=O)Nc2ccc(C)c(N(C)C)c2)c(C)n(C)c1C`, the AC50 was 15.8 µM [rising, partial curve, poor fit] under setting [1] and 10 µM [rising, partial curve, poor fit] under setting [2]. As for `COc1ccc(N2CCN(C(=O)c3ccc(C)c(Cl)c3)CC2)cc1`, the half-maximal activity concentration (AC50) runs as follows: under setting [1], 17.8 µM [rising, single point]; under setting [2], 22.4 µM [rising, single point]. Regarding `CCCCN(CCCC)c1cc(C)nc(-c2ccccc2O)n1`, the AC50 is, setting by setting: under setting [1], 25.1 µM [rising, partial curve, poor fit]; under setting [2], 17.8 µM [rising, partial curve, poor fit].

Consider `Cn1cccc1CC(=O)N/N=C/c1cc([N+](=O)[O-])ccc1Cl`, for which, under setting [1], the half-maximal activity concentration (AC50) is 0.891 µM [rising, full curve, poor fit]. As to `O=C(CCCOc1ccc(Cl)cc1Cl)Nc1ccncc1`, under setting [2], the half-maximal activity concentration (AC50) is 5.62 µM [rising, full curve].

In the case of `Cn1nc(-c2ccccc2)c2cc(C(=O)O)sc21`, the AC50 under setting [1] was 0.0126 µM [falling, full curve, poor fit]. For `C[C@H](N)[C@H](O)c1cccc(O)c1`, the half-maximal activity concentration (AC50) is 0.447 µM [falling, full curve] under setting [1] and 0.126 µM [falling, full curve, poor fit] under setting [2]. As for `S=C(NCCC(c1ccccc1)c1ccccc1)Nc1ccccc1Cl`, under setting [2], the AC50 was 35.5 µM [falling, single point].

`Cc1[nH]c2ccccc2c1C(=O)Cn1c(=O)oc2ccccc21`: under setting [2], the concentration at half-maximal activity (AC50) is 8.91 µM [rising, partial curve, poor fit].

Regarding `CCOc1ccc(Cc2nnc(N)s2)cc1OCC`, the AC50 under setting [2] was 35.5 µM [rising, single point]. Consider `O=C(CC1Nc2cccc3cccc(c23)NC1=O)Nc1ccccc1` (configuration not stated), for which the concentration at half-maximal activity (AC50) under setting [2] is 5.01 µM [rising, partial curve, poor fit]. `NNc1ncnc2scc(-c3ccc(Cl)cc3)c12`: the AC50 under setting [2] was 20 µM [rising, partial curve]. As for `Cc1cccc(NC(=O)c2ccc(C3SCC(=O)N3CCc3ccccc3)cc2)c1C` (configuration not stated), the half-maximal activity concentration (AC50) under setting [2] was 12.6 µM [rising, partial curve]. With `Cc1noc(C)c1S(=O)(=O)N1CCCC(C(=O)Nc2ccc(Cl)cn2)C1` (configuration not stated), the half-maximal activity concentration (AC50) under setting [1] was 35.5 µM [rising, single point]. Consider `COc1cc(C(Nc2ccccn2)c2ccc3ccc(C)nc3c2O)cc(OC)c1O` (configuration not stated), for which the AC50 reads like this: under setting [1], 14.1 µM [rising, partial curve]; under setting [2], 10 µM [rising, partial curve]. Turning to `CS(=O)(=O)N(CC(=O)Nc1ccccc1C(=O)NCc1ccco1)c1ccc2c(c1)OCCO2`, the AC50 under setting [2] was 22.4 µM [rising, single point]. In the case of `Cc1sc2nc(CSc3ccccc3)nc(N3CCN(C)CC3)c2c1C`, the AC50 under setting [1] was 15.8 µM [rising, partial curve, poor fit]. As for `COc1cccc(-c2ccc3ncnc(N4CCOCC4)c3c2)c1`, the half-maximal activity concentration (AC50) by setting is: under setting [1], 11.2 µM [falling, partial curve]; under setting [2], 10 µM [falling, partial curve]. As to `O=C(CSc1nnc(-c2ccncc2)n1-c1ccccc1)Nc1ccc(Cl)c(Cl)c1`, under setting [2], the half-maximal activity concentration (AC50) is 22.4 µM [falling, partial curve, poor fit]. Take `CN(C)S(=O)(=O)c1ccc(C(=O)Nc2ccccn2)cc1`: the half-maximal activity concentration (AC50) is, setting by setting: under setting [1], 10 µM [rising, partial curve]; under setting [2], 15.8 µM [rising, partial curve, poor fit]. Take `COc1ccc(NC(=O)CSC2=Nc3ccccc3C3=NC(CC(=O)NCc4ccco4)C(=O)N23)cc1` (configuration not stated): the AC50 under setting [1] is 17.8 µM [rising, single point]. `O=C(CCSc1ccccc1)Nc1ccccc1Br`: under setting [2], the AC50 was 4.47 µM [rising, partial curve]. `c1ccc(CN2CCC(Nc3nc(-c4ccccc4)nc4ccccc34)CC2)cc1`: the AC50 reads like this: under setting [1], 15.8 µM [rising, single point]; under setting [2], 31.6 µM [rising, single point].

Turning to `CC(OC(=O)c1cc2sccc2n1C)C(=O)NCC1CCCO1` (configuration not stated), under setting [2], the concentration at half-maximal activity (AC50) was 35.5 µM [rising, single point].

`COc1ccc(-c2ccccc2)cc1NCc1ccc(OC)c(OC)c1`: the concentration at half-maximal activity (AC50) is, setting by setting: under setting [1], 12.6 µM [rising, single point]; under setting [2], 25.1 µM [rising, single point]. As to `O=C(NCCCN1CCOCC1)C(=O)N/N=C/c1c(Cl)cccc1Cl`, under setting [2], the AC50 was 6.31 µM [falling, single point].

Turning to `CCOc1cc(CNC(=O)c2ccccc2NC(=O)c2nsc3ccccc23)ccc1OC`, the AC50 was 8.91 µM [falling, partial curve, poor fit] under setting [1] and 35.5 µM [falling, partial curve] under setting [2]. `CCOC(=O)c1sc(NC(=O)c2ccc(C)s2)cc1C`: the concentration at half-maximal activity (AC50) by setting is: under setting [1], 14.1 µM [falling, single point]; under setting [2], 0.0251 µM [falling, single point]. As to `CN1CCc2c1nc1ccccc1c2N=C1CCCN1Cc1ccccc1`, the AC50 reads like this: under setting [1], 7.08 µM [rising, single point]; under setting [2], 11.2 µM [rising, single point]. As for `C/C(CC(=O)Nc1ccc(Cl)c(C(F)(F)F)c1)=N\NC(=O)c1cccc(O)c1`, the AC50 runs as follows: under setting [1], 35.5 µM [falling, partial curve, poor fit]; under setting [2], 14.1 µM [falling, partial curve, poor fit]. Consider `COc1ccc(S(=O)(=O)c2c(Nc3c(C)cccc3C)sc(C(=O)c3ccc4c(c3)OCO4)c2N)cc1`, for which the AC50 under setting [1] is 15.8 µM [falling, partial curve, poor fit]. As to `Clc1ccc(OCCCc2nc(-c3cccnc3)no2)c(Cl)c1`, the AC50 runs as follows: under setting [1], 17.8 µM [rising, single point]; under setting [2], 31.6 µM [rising, single point]. Take `Cn1c(-[n+]2c(-c3ccccc3)cc(-c3ccccc3)cc2-c2ccccc2)nc2cc([N+](=O)[O-])ccc21`: the AC50 under setting [2] is 3.98 µM [rising, single point]. On the same count and under the same terms, with `COc1ccc(NC(C)C(=O)Nc2cc(C(F)(F)F)ccc2N2CCOCC2)c(OC)c1` (configuration not stated) the figure was 25.1 µM [rising, single point].

For the compound `CCCC(CCC)=NNc1ccc(S(=O)(=O)Nc2ccccc2OC)cc1[N+](=O)[O-]`, the half-maximal activity concentration (AC50) by setting is: under setting [1], 11.2 µM [rising, partial curve]; under setting [2], 25.1 µM [rising, single point]. As for `COC(=O)c1c(NC(=O)/C=C/C(=O)O)sc(Cc2ccccc2)c1C`, the half-maximal activity concentration (AC50) under setting [2] was 35.5 µM [rising, single point]. Still for that read-out and setting: with `Cc1cc(C)c(C)c(S(=O)(=O)N2CCN(CC(=O)NC(=O)NCc3ccccc3)CC2)c1C` the figure was 0.708 µM [falling, full curve]; with `O=c1[nH]c2ccccc2n1Cc1ccc(Cl)cc1`, 20 µM [rising, single point].

For `O=S(=O)(c1ccc(Oc2ccc(Br)cc2F)nc1)N1CCCCC1`, the AC50 is, setting by setting: under setting [1], 11.2 µM [rising, partial curve]; under setting [2], 31.6 µM [rising, single point].

Turning to `Cc1ccc(-c2nnc(SCC(=O)c3ccc(Cl)cc3)n2-c2ccccc2)cc1`, the concentration at half-maximal activity (AC50) under setting [2] was 35.5 µM [falling, single point].

Consider `O=c1c2ccccc2nc(SCc2cccc(F)c2)n1Cc1ccco1`, for which, under setting [2], the AC50 was 10 µM [rising, partial curve]. For the compound `Cc1cc(/C=N/n2cnnc2)c(C)n1-c1ccc(Cl)cc1`, the half-maximal activity concentration (AC50) under setting [1] is 28.2 µM [falling, partial curve, poor fit]. Take `COc1cc(/C=N\Nc2ccc([N+](=O)[O-])cc2)ccc1OCC(=O)Nc1ccc(C)c(C)c1`: the AC50 by setting is: under setting [1], 5.62 µM [falling, single point]; under setting [2], 3.98 µM [falling, partial curve, poor fit].

Consider `N/C(=N\OC(=O)COc1ccc2ccccc2c1Br)c1cccnc1`, for which, under setting [2], the AC50 is 14.1 µM [rising, single point]. Same read-out and setting: with `COc1ccc(CNc2nc3ccccc3n2Cc2ccc(C)cc2)cc1OC` the figure was 10 µM [rising, partial curve]; with `Cc1ccsc1/C=N\NC(=O)Cn1nnc2ccccc21`, 20 µM [rising, single point]. For `CCn1c2c(c3cc(OCC(C)C)ccc31)CCCC2=O`, the AC50 runs as follows: under setting [1], 15.8 µM [rising, partial curve, poor fit]; under setting [2], 10 µM [rising, partial curve, poor fit]. Take `C#CCN1C(=O)C(O)(CC(=O)/C=C/c2ccco2)c2ccccc21` (configuration not stated): the half-maximal activity concentration (AC50) is 0.01 µM [rising, full curve, poor fit] under setting [1] and 0.00794 µM [rising, full curve] under setting [2]. On to `c1ccc(N(c2ccccc2)c2nc(-n3ccnc3)nc(-n3ccnc3)n2)cc1`, for which the half-maximal activity concentration (AC50) under setting [1] is 0.891 µM [falling, partial curve, poor fit].

Take `Cc1oc(-c2ccccc2F)nc1CS(=O)(=O)CC(=O)N1CCN(Cc2ccccc2)CC1`: the AC50 is 35.5 µM [rising, single point] under setting [1] and 35.5 µM [rising, single point] under setting [2].
